Assay results as given in PubChem BioAssay AID2685 (National Center for Advancing Translational Sciences (NCATS), 2010).
The campaign covered roughly 320,000 compounds. About 2,100 (0.66%) were called active. Inconclusive means that the source gave no clear call. Such entries were picked first, then a sample of the others. The call rests on the fitted dose curve; in most records, active means well fitted inhibition curve with a large enough effect in the signal ratio, with a control signal flat (not every such curve was filed as active); inconclusive means small, poorly fitted or top-dose-only effect, or effect the other way, or a change in a side signal; inactive means flat fitted curve, though single readings scatter; the % refers to the signal ratio. A potency beside an inconclusive call is a rough fit, not a confirmed value.

Assay: qHTS Assay for Lipid Storage Modulators in Drosophila S3 Cells
Settings: BODIPY lipid droplet fluorescence, 18-24 h, cells fed with added oleic acid; lipid storage change, negative = inhibition: at 46.1 µM (top of the series) unless noted
Method in brief: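 Drosophila S3 cells loaded with oleic acid (400 uM, as added) and compounds at several concentrations; lipid droplets imaged by 488-nm laser-scanning cytometry, 500–530 nm intensity and object ratio to cell channel. Percent activity normalized to 20 uM Triacsin C.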
On the % scale 0 is the no-effect control and ±100 the full control effect; potency means the concentration at half of the fitted maximal effect.

Row | SMILES | Potency | lipid storage change, negative = inhibition
1 | COc1cc(C(=O)NCCN2C(=O)S/C(=C\c3cccs3)C2=O)cc(OC)c1OC | inconclusive: 15.8 µM [falling, partial curve, poor fit] | 
2 | COc1ccc(-n2ccnc2SCC(=O)NCc2ccc3c(c2)OCO3)cc1 |  | inconclusive: -0.816%
3 | O=C(NCc1ccc(Cl)cc1)C1CCC(=O)N(C2CCCCCC2)C1 (centres undefined) |  | inconclusive: 4.47%
4 | CCOC(=O)Cc1[nH]nc2c1C(c1ccoc1)C(C#N)=C(N)O2 (centres undefined) |  | inconclusive: -31.7%
5 | O=C(O)c1ccc2c(c1)C(=O)N(c1ccc(/C=C/C(=O)c3ccccc3)cc1)C2=O |  | inconclusive: -28.6%
6 | CCOc1cc(/C=C2/N=C(c3ccc4c(c3)OCO4)OC2=O)ccc1OC(C)=O | inconclusive: 9.2 µM [activator, partial curve] | 
7 | OCC[C@H]1C[C@@H](O)[C@H](O)[C@]2(CCc3ccccc3CO2)O1 |  | inconclusive: -11.3%
8 | CCOC(=O)c1c(C)[nH]c(C(=O)N(C)CC(=O)Nc2ccc(OC)cc2)c1C | inconclusive: 0.0206 µM [falling, full curve, poor fit] | 
9 | CC1(C)SC2c3ccccc3C(=O)N2[C@@H]1C(=O)NCc1ccco1 (some centres undefined) |  | inconclusive: 20.9%
10 | O=C(COC(=O)CNC(=O)c1ccc(Cl)cc1)Nc1cccc(S(=O)(=O)N2CCCC2)c1 |  | inconclusive: -0.634%
11 | Clc1ccc(-c2nnc(SCc3nc4ccccc4s3)o2)cc1 |  | inconclusive: 11.3%
12 | O=C(Cc1ccccc1F)N1CCN(S(=O)(=O)c2ccc(Cl)cc2)CC1 | inconclusive: 3.66 µM [activator, single point] | 
13 | CCOC(=O)Cc1csc(SCc2cc(=O)oc3cc(O)ccc23)n1 |  | inconclusive: 40.8%
14 | Cc1cc(C)nc(SCCn2c(N(C)Cc3ccccc3)nc3c2c(=O)n(C)c(=O)n3C)n1 | inconclusive: 1.3 µM [falling, full curve, poor fit] | 
15 | CN(CC(=O)Nc1ccccc1Cl)C(=O)c1cc(=O)[nH]c2ccccc12 |  | inconclusive: -10.7%
16 | N#Cc1cc2c(nc1SCc1cccnc1)CCCC2 |  | inconclusive: 62%
17 | CC(C)(C)C(=O)NC1CCN(S(=O)(=O)c2cccc(C(F)(F)F)c2)CC1 |  | inconclusive: 30.6%
18 | CC(C)c1ccc(C(C)NC(=S)NC2CCCCC2)cc1 (centres undefined) |  | inconclusive: -29.5%
19 | Cc1cccc(NC(=O)CCc2ccc(C)o2)c1 |  | inconclusive: -23.9%
20 | O=C1C2C3c4ccccc4C(c4ccccc43)C2C(=O)N1Cc1ccco1 (centres undefined) |  | inconclusive: 3.24%
21 | O=C(Nc1cccc([N+](=O)[O-])c1)NC1CCCCCCC1 | inconclusive: 29.1 µM [falling, partial curve, poor fit] | 
22 | CCOc1cc2c(cc1OCC)C(c1ccccc1)N(c1ccccc1)C(=O)C2 (centres undefined) | inconclusive: 7.31 µM [activator, partial curve, poor fit] | 
23 | CCOC(=O)c1sc(-c2ccccn2)nc1C |  | inconclusive: 17.5%
24 | O=C(Nc1ccccn1)c1ccc(Cl)s1 |  | inconclusive: 9.34%
25 | COc1ccc(C2=NCCn3nc4ccccc4c32)cc1 | inconclusive: 29.1 µM [activator, single point] | 

Compounds shown so far that have fluorine (two):
Row | SMILES | Potency | lipid storage change, negative = inhibition
12 | O=C(Cc1ccccc1F)N1CCN(S(=O)(=O)c2ccc(Cl)cc2)CC1 | inconclusive: 3.66 µM [activator, single point] | 
17 | CC(C)(C)C(=O)NC1CCN(S(=O)(=O)c2cccc(C(F)(F)F)c2)CC1 |  | inconclusive: 30.6%

Continued.

Row | SMILES | Potency | lipid storage change, negative = inhibition
26 | O=C(N/N=C/c1cccc(O)c1)c1cc(-c2ccccc2)nc2ccccc12 | inconclusive: 0.82 µM [falling, full curve, poor fit] | 
27 | COc1ccc(-n2nc(C(=O)NCC(=O)N3CCN(c4cccc(Cl)c4)CC3)c3ccccc3c2=O)c(OC)c1 | inconclusive: 29.1 µM [activator, partial curve] | 
28 | CCOC(=O)c1ccc(NC(=S)NCCc2ccccc2F)cc1 |  | inconclusive: -54.4%
29 | Cc1ccc(C(=O)Cn2c(NCCO)nc3ccccc32)cc1 |  | inconclusive: 23.2%
30 | O=C(NCc1ccco1)c1cc2sccc2n1Cc1ccccc1 | inconclusive: 18.4 µM [cytotoxic, partial curve] | 
31 | O=C(O)c1cc(C(=O)O)cc(-c2ccc(/C=c3/sc4nc5ccccc5n4c3=O)o2)c1 | inconclusive: 25.9 µM [falling, partial curve, poor fit] | 
32 | Cc1ccccc1/C=C1\CCCc2ccccc2C1=O |  | inconclusive: -13.9%
33 | O=c1[nH]c(N/N=C\c2ccc3c(c2)OCO3)nc2ccccc12 | inconclusive: 18.4 µM [falling, single point] | 
34 | Oc1ccc(C(=S)N2CCCC2)cc1 |  | inconclusive: 115%
35 | O=C(O)c1ccc(NS(=O)(=O)c2ccc(N3CCCC3)c([N+](=O)[O-])c2)cc1 |  | inactive: 0.165%
36 | COc1cc(C)ccc1OCC(=O)NC1CCCCCC1 |  | inconclusive: 11.8%
37 | CCOC1(/N=C(\C)NS(=O)(=O)c2ccc(Cl)cc2)C(C)=CC(=O)C=C1C |  | inconclusive: -4.56%
38 | CN=C(Nc1cc(C)nn1-c1ccccc1)c1ccc(F)cc1 |  | inconclusive: -56.4%
39 | CC(=O)Nc1ccc(S(=O)(=O)NC(CC(=O)O)c2ccc(C)cc2)cc1 (centres undefined) | inconclusive: 16.4 µM [falling, partial curve, poor fit] | 
40 | COc1cc2ccccc2cc1C(=O)OCC(=O)N1CCOCC1 | inconclusive: 14.6 µM [falling, partial curve, poor fit] | 
41 | O=C(c1ccc(F)cc1)N1CCCC(C(=O)N2CCCCC2)C1 (centres undefined) | inconclusive: 18.4 µM [activator, partial curve] | 
42 | Cc1ccc(-c2nc3ccccc3c(=O)n2NC(=S)N(C)C)cc1 |  | inconclusive: 31.3%
43 | Cc1cc(=O)oc2c(C(=O)/C=C/c3ccccc3)c(O)ccc12 | inconclusive: 6.51 µM [activator, single point] | 
44 | Cc1nn(-c2ccccc2)c(/N=C/c2ccccc2O)c1-c1ccccc1 | inconclusive: 11.6 µM [activator, single point] | 
45 | CCOc1ccc(Nc2cc(=O)oc3ccccc23)cc1 |  | inconclusive: -18.2%
46 | Cc1ccc(-n2c(N)c(C(=O)Nc3c(C)n(C)n(-c4ccccc4)c3=O)c3nc4ccccc4nc32)cc1C | inconclusive: 29.1 µM [falling, single point] | 
47 | O=C(N[C@@H](Cc1ccccc1)C(=O)NCCc1c[nH]c2ccccc12)c1ccco1 | inconclusive: 0.206 µM [activator, single point] | 
48 | CN(C)C(=O)CN1c2cccc3cccc(c23)S1(=O)=O |  | inconclusive: 8.73%
49 | CS(=O)(=O)N1CCC(Oc2ccccc2C(=O)NC2CCCCCC2)CC1 | inconclusive: 4.61 µM [falling, full curve, poor fit] | 
50 | O=C(CSC1=NS(=O)(=O)c2cc(Cl)ccc2N1)Nc1cccc(F)c1 |  | inconclusive: -11.2%

Row | SMILES | Potency | lipid storage change, negative = inhibition
51 | CCCCN(CCCNC(=O)C1CCCN(S(=O)(=O)CC)C1)Cc1ccccc1 (centres undefined) |  | inconclusive: -6.05%
52 | COc1ccc(S(=O)(=O)N2CCN(CC(=O)c3ccc(O)c(O)c3)CC2)cc1 |  | inconclusive: -174%
53 | CCN(CC)Cc1c(C(=O)OC)nnn1-c1nonc1N |  | inconclusive: -24.7%
54 | O=C(Cn1ncc2c3ccccc3n(Cc3ccccc3F)c2c1=O)NCC1CCCO1 (centres undefined) | inconclusive: 11.6 µM [falling, single point] | 
55 | COC(=O)C(C)NC(=O)C1CCCN1S(=O)(=O)c1cc(C)c(Cl)cc1C (centres undefined) | inconclusive: 3.66 µM [falling, single point] | 
56 | Cc1sc2ncnc(SCC(=O)N3c4ccccc4Sc4ccc(Cl)cc43)c2c1C |  | inconclusive: 7.48%
57 | CC(C)(C)NC(=O)CN1C(=O)NC(c2ccccc2)(c2ccccc2)C1=O | inconclusive: 3.26 µM [activator, partial curve] | 
58 | C=CCC(C(=O)OC)(C(=O)OC)c1ccccc1[N+](=O)[O-] |  | inconclusive: -2.99%
59 | O=c1n(-c2ccccc2)c(=O)n2n1CCC2 |  | inconclusive: -9.89%
60 | CC(=O)N1CCN(c2ccc(NC(=O)C(c3ccccc3)c3ccccc3)cc2)CC1 | inconclusive: 29.1 µM [falling, single point] | 
61 | O=C(NCC1CCOCC1)c1ccc2nc(Cc3cccc(Cl)c3)oc2c1 | inconclusive: 29.1 µM [activator, single point] | 
62 | FC(F)c1nnc2ccc(Cl)nn12 |  | inconclusive: 8.51%
63 | CCCCNc1ccc(C(CC(N)=O)NC(=O)c2ccccc2)cc1[N+](=O)[O-] (centres undefined) |  | inconclusive: 19.5%
64 | COc1ccc(N(C(=O)c2ccco2)C(C(=O)NC2CCCC2)c2ccc(C)cc2)c(OC)c1 (centres undefined) |  | inconclusive: -21.3%
65 | O=c1[nH]c(Nc2ccc3c(c2)OCCO3)nnc1Cc1ccc(Cl)cc1 |  | inconclusive: 0.353%
66 | O=C(NNS(=O)(=O)c1ccc(F)cc1)C1CCCCC1 | inconclusive: 0.146 µM [falling, single point] | 
67 | CCNC(=O)C12CCC(C)(C(=O)C1Br)C2(C)C (centres undefined) |  | inconclusive: -2.41%
68 | CCOC(=O)N1CCN(c2nc(-c3ccc(F)cc3)cs2)CC1 | inconclusive: 16.4 µM [rising, partial curve] | 
69 | O=C1O/C(=C/c2ccccc2)c2ccccc21 | inconclusive: 0.58 µM [activator, full curve, poor fit] | 
70 | CC(=O)c1c(OC(=O)c2ccccc2)ccnc1C(F)(F)F |  | inconclusive: -2.55%
71 | Oc1ccc(CNc2ccccc2)c2cccnc12 |  | inconclusive: -2.47%
72 | CCOC(=O)CSc1nnc(N)s1 |  | inconclusive: 3.04%
73 | COc1ccc(N2CC(O)=C(c3nc(-c4ccc(Cl)cc4)cs3)C2=N)cc1 |  | inconclusive: 9.22%
74 | O=C(Nc1ccc(F)cc1)Nc1nnc(-c2ccccc2)o1 | inconclusive: 29.1 µM [activator, single point] | 
